# Source: PubChem BioAssay AID1259254 (NCATS, 2017)
# Screen: 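Gene knock-downs that lead to re-replication, shown by excess G2 DNA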 (primary screen)
# Cell system: human HCT116 colorectal cancer cells
# Reagents: single siRNA against human genes
# Time to read-out: 3 days
# Measured: 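Nuclei stained with Hoechst and imaged; cell-cycle phase assigned by DNA content; G2 share scaled per plate, non-targeting siRNA 0%, GMNN siRNA 100%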
# Reading the numbers: G2 robust z-score and G2 cells, % of GMNN control: higher = more G2 cells, more excess DNA replication; raw share of cells in G2: higher = larger share of cells with G2 DNA content
# Call rule: 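Active siRNAs have a G2 robust z of 5 or more median absolute deviations over the median, which in these data means about 38% or higher of GMNN control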
# Here is one part, drawn at random, of about 59,000 reagents. About 1,550 of all reagents (2.6%) count as active. 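G2 share is only a proxy for re-replication; each gene was hit by three separate siRNAs, and active genes were retested.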 The raw values are shown without normalisation. Unmarked entries are inactive. Reagents against one gene are numbered here. The record does not give: the amount of reagent.
gene,siRNA no.,G2 robust z-score,"G2 cells, % of GMNN control",raw share of cells in G2 (%)
MARK2P10,1,2.74,22.2,11.9
MARK2P10,2,-0.867,-3.13,2.27
MARK2P10,3,-0.252,1.2,5.29
ARHGEF10L,1,-0.827,-2.85,3.43
ARHGEF10L,2,0.791,8.53,7.67
ARHGEF10L,3,-0.353,0.48,3.29
AP5M1,1,-0.109,2.2,5.37
AP5M1,2,2.41,19.9,12.4
AP5M1,3,-0.601,-1.26,2.74
MROH6,1,0.695,7.85,6.39
MROH6,2,-0.55,-0.905,2.81
MROH6,3,6.97 (active),52,23.7
EIF4B,1,1.12,10.9,9.18
EIF4B,2,3.91,30.5,14.5
EIF4B,3,-0.555,-0.94,4.91
EIF2AK2,1,-0.337,0.596,5.8
EIF2AK2,2,-1.26,-5.93,3.41
EIF2AK2,3,-0.554,-0.931,3.7
FAM168B,1,0.031,3.19,3.73
FAM168B,2,0.703,7.91,7.16
FAM168B,3,1.39,12.8,7.15
PXDN,1,-0.651,-1.61,3.66
PXDN,2,-0.0187,2.84,6.8
PXDN,3,1.54,13.8,9.01
EDARADD,1,-0.336,0.601,4.4
EDARADD,2,2.45,20.2,9.52
EDARADD,3,-0.277,1.02,2.95
SYCE3,1,-0.422,0.000877,3.15
SYCE3,2,0.169,4.16,5.22
SYCE3,3,0.146,3.99,4.71
DZIP1,1,-0.0269,2.78,7.48
DZIP1,2,0.37,5.57,6.02
DZIP1,3,-0.32,0.714,4.11
POLR2C,1,1.55,13.8,9.74
POLR2C,2,1.4,12.8,9.57
POLR2C,3,1.3,12.1,8.18
FAM230J,1,-0.974,-3.89,1.91
FAM230J,2,0.0165,3.08,4.3
FAM230J,3,0.645,7.5,6.34
FAM230J,4,0.851,8.95,7.3
FAM230J,5,5.5 (active),41.7,22.5
FAM230J,6,-0.331,0.64,4.34
SELENOP,1,-0.119,2.13,5.88
SELENOP,2,0.0271,3.16,5.47
SELENOP,3,-0.411,0.0755,3.38

Hits, of those listed so far:
gene,siRNA no.,G2 robust z-score,"G2 cells, % of GMNN control",raw share of cells in G2 (%)
MROH6,3,6.97 (active),52,23.7
FAM230J,5,5.5 (active),41.7,22.5

The listing continues:
gene,siRNA no.,G2 robust z-score,"G2 cells, % of GMNN control",raw share of cells in G2 (%)
SLC25A36,1,-0.932,-3.59,4.86
SLC25A36,2,1.22,11.6,8.58
SLC25A36,3,1.81,15.7,10.9
PTPRC,1,-0.546,-0.876,4.51
PTPRC,2,-0.933,-3.6,3.22
PTPRC,3,-0.358,0.449,3.63
HEPACAM2,1,-1.21,-5.51,1.58
HEPACAM2,2,-0.72,-2.1,2.41
HEPACAM2,3,2.74,22.2,10.3
ANO6,1,1.2,11.4,7.25
ANO6,2,1.19,11.3,7.62
ANO6,3,8.34 (active),61.6,27.6
THAP8,1,4.27,33,16.8
THAP8,2,-0.927,-3.56,3.21
THAP8,3,-0.527,-0.74,5.6
DUS3L,1,-0.536,-0.802,4.03
DUS3L,2,-0.318,0.73,4.81
DUS3L,3,-0.355,0.471,3.18
SOX12,1,0.708,7.95,8.36
SOX12,2,0.578,7.04,6.96
SOX12,3,-0.612,-1.34,3.51
ACOD1,1,0.561,6.92,6.38
ACOD1,2,-0.827,-2.85,2.33
ACOD1,3,-0.63,-1.47,2.95
